The experiment has as its target T1, polypeptide of SEQ ID NO: 136 (human).
T1 sequence (peptide): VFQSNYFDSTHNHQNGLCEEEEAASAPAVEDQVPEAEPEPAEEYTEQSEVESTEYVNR
Kind of experiment: trypsin digestion of antibody-bound reduced-alkylated CAPRIN-1, protein A capture, LC-MS.

These are yes or no findings as the source states them, for the method shown. In cells and extracts the contact can be indirect. Some entries that bind do so weakly or less than the wild type.

B1: monoclonal antibody #1 against CAPRIN-1 (antibody, V domains shown)
VH: EVQLHQFGAELVKPGASVKISCKASGYTFTDYNMDWVKQSHGKSLEWIGDINPNYDSTSYNQKFKGKATLTVDKSSSTAYMELRSLTSEDTAVYYCARSRSYDYEGFAYWGQGTLVTVSA
VL: DIQMTQSPASLSASVGETVTITCRASGNIHNYLAWYQQKQGKSPQLLVYNAKTLADGVPSRFSGSGSGTQYSLKINSLQPEDFGSYYCQHFWSTLTFGAGTKLELKR
notes: also called the #1 monoclonal antibody to CAPRIN-1; antibody (a)
With B1, the binding entry was “binds”.

These data come from US20110256144A1 (TORAY INDUSTRIES, published 2011).
